Results taken from patent US20090028851A1 (MAXPLANCK GESELLSCHAFT ZUR F RDERUNG DER WISSENSCH, published 2009).
No constants are given. Whether binding was seen depends on the method and setting. Some entries that bind do so weakly or less than the wild type.

What was measured:
Experiment in all cases: SPOT peptide membrane, ECL
[1] = target: T1, SPOT peptide 24, …
T1 sequence (peptide): GSGKWEGGPSKNS

[2] = target: T2, SPOT peptide 21, …
T2 sequence (peptide): YQFNGSGSGKWEG

[3] = target: T3, SPOT peptide 23, …
T3 sequence (peptide): GSGSGKWEGGPSK

[4] = target: T4, SPOT peptide 22, …
T4 sequence (peptide): FNGSGSGKWEGGP

Measured: binding

B1: mouse monoclonal anti-Eag1 antibody ImAb5 (antibody, mouse IgG2b, V domains shown)
VH: EVKLVESGGGLVQPGGSLRLSCATSGFTFTDYYMSWVRQPPGKALEWLGFIRNKATGYTTEYSASVKGRFTISRDNSQSILYLQMNTLRAEDSATYYCARDTAATWYFDVWGAGTTVTVSS
VL: DIVMSQSPSSLAVSAGEKVTMSCKSSQSLLNSRTRKNYLAWYQQKPGQSPKLLIYWASTRESGVPDRFTGSGSGTDFTLTISSVQAEDLAVYYCKQSYDLRTFGGGTKLEIKR
binds: all assays above
